Results are given in words; binding and its absence hold for the method and conditions named. Some binding calls cover weakened binding; strength is not graded here.
Columns and labels:
CBF1/RBPJk [1] = target: CBF1/RBPJk (UniProt Q06330); assay: EMSA competition and GST affinity assay
CBF1/RBPJk [2] = target: CBF1/RBPJk (UniProt Q06330); assay: GST affinity assay, GST-EBNA2 (252-425) and 35S-labeled in vitro translated CBF1

The chains behind the UniProt entries cited, without tags or fusion partners.
UniProt Q06330: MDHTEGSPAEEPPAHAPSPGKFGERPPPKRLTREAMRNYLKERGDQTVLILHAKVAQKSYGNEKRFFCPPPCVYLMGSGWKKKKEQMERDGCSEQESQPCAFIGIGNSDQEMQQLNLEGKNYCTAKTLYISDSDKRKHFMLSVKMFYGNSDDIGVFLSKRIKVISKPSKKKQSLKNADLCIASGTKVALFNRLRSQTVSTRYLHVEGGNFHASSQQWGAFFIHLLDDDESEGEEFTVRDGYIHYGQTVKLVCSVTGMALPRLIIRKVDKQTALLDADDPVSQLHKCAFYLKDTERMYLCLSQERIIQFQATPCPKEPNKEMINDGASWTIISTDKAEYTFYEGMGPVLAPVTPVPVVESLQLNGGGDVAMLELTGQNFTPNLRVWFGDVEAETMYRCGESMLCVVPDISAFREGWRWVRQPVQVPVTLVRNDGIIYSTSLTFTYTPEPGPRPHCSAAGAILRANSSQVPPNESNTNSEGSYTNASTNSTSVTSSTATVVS

Binder: PSGPPWWPPI [CR6 peptide comprised of EBNA2 amino acids 318-327]
- binding (CBF1/RBPJk [1]): binds
- binding (CBF1/RBPJk [2]): binds

From patent US6495144
